The values that follow come from article PMC8727931.

The chains behind the UniProt entries cited, without tags or fusion partners. Where a name states a change or a piece, a line headed by the entry shows the natural chain unless it says otherwise. A line that says so, or that is headed by a name, gives the form on record, which may keep a tag or linker. Residues count along the entry.
GST-FAM134B (Q9H6L5, residues 451-476): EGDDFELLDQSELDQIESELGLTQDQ
FAM134B LIR L463Q (SEC-MALS construct) (Q9H6L5, form named): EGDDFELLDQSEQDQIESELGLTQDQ
GST-FAM134B I466Q (Q9H6L5, form named): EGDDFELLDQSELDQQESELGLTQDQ
UniProt Q9DCD6: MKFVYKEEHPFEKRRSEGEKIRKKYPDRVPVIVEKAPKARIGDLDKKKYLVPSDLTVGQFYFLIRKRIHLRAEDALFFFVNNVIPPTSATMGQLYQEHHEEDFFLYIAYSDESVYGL

Results are given in words; binding and its absence hold for the method and conditions named. Some binding calls cover weakened binding; strength is not graded here.

In assay [1] the target is GST-FAM134B (UniProt Q9H6L5). Description: pull-down; 1 uM GST-tagged FAM134B or mutants incubated with purified His-tagged GABARAP or MBP-tagged LC3A (or its mutants) 1 h at 4 °C; GSH-Sepharose 4B beads in PBS; Coomassie blue staining; both purified.
Assay [2] deals with GST-FAM134B (UniProt Q9H6L5). Description: pull-down; competition: 4 uM GST-tagged FAM134B incubated with 4.8 uM His-tagged GABARAP (or its mutants) and 4.8 uM MBP-tagged LC3A (or its mutants) together, 1 h at 4 °C; GSH-Sepharose 4B beads in PBS; Coomassie blue staining; both purified.
The target in assay [3] is GST-FAM134B L463Q (UniProt Q9H6L5). Put plainly: pull-down; 1 uM GST-tagged FAM134B or mutants incubated with purified His-tagged GABARAP or MBP-tagged LC3A (or its mutants) 1 h at 4 °C; GSH-Sepharose 4B beads in PBS; Coomassie blue staining; both purified.
Assay [4] deals with GST-FAM134B I466Q (UniProt Q9H6L5). Described as above.
The target in assay [5] is FAM134B LIR L463Q (SEC-MALS construct) (UniProt Q9H6L5). Put plainly: SEC-MALS; Superose 12 10/300GL column; 100 mM NaCl, 50 mM Tris/HCl pH 7.5, 1 mM DTT, 1 mM EDTA; proteins mixed at a 1:1 molar ratio; both purified.

Regarding “MBP-tagged LC3A K65F (from UniProt Q91VR7 1-121)”, the binding result in assay [1] was “binds”. With “His-tagged GABARAP Y25H (from UniProt Q9DCD6 1-117)”, the binding entry in assay [2] was “binds”. “His-tagged GABARAP (from UniProt Q9DCD6 1-117)”: the binding result in assay [2], in assay [1], in assay [3] and in assay [4] was “binds” in each case. Turning to “MBP-tagged LC3A H27Y (from UniProt Q91VR7 1-121)”, the binding result in assay [2] and in assay [1] was “binds” in each case. Consider “His-tagged GABARAP R28K (from UniProt Q9DCD6 1-117)”, for which the binding result in assay [2] is “binds”. Take “MBP-tagged LC3A H57D (from UniProt Q91VR7 1-121)”: the binding entry in assay [1] is on record as “binds”. As to “MBP-tagged LC3A K30R (from UniProt Q91VR7 1-121)”, the binding result in assay [2] and in assay [1] was “binds” in each case.

Regarding “GABARAP (recombinant, for ITC, SEC and crystallization) (from UniProt Q9DCD6 1-117)”, the binding result in assay [5] is “binds”.
